Source: patent US9012455B2, “Pharmaceutical compositions containing an indoyl isoquinoline containing compound and uses thereof” (The Regents of the University of California, priority 2006, dated 2015)

System: Ba/F3-p210 cells
Experiment: median-effect and Combination Index analysis (Chou's method)
Assay type: cell-based, murine
Settings: Mus musculus, read-out: median-effect dose (Dm)

SMILES: Cc1ccc(NC(=O)c2ccc(CN3CCN(C)CC3)cc2)cc1Nc1nccc(-c2cccnc2)n1 [imatinib]
- EC50: 200 nM
